Square brackets hold non-standard residues; d marks the D form. Peptide text beside a SMILES is read from it.

The series has as its system human red blood cells (hRBCs). The series can be described thus: Hemolytic assay. Format: cell-based. The following applies: ratio between HL50 and MIC (S. aureus USA300). Here is the method:
Briefly, human red blood cells (hRBCs) were washed three times with phosphate buffer saline (PBS) and diluted to a 2% solution (v/v). After peptide treatment, incubation at 37° C. for one hour, and centrifugation at 5000 rpm for 10 minutes, aliquots of the supernatant were carefully transferred to a fresh 96-well microplate. The amount of hemoglobin released was measured at 545 nm. The percent lysis was calculated by assuming 100% release when human blood cells were treated with 2% Triton™ X-100, and 0% release when incubated with PBS buffer. The peptide concentration that caused 50% lysis of hRBCs is defined as HL50. The cell selectivity index (CSI) was calculated as the ratio between HL50 and MIC of the corresponding peptide against a select pathogenic species.
Hemolytic assays of peptides were performed as described (Mishra, et al. (2017) Acta Biomater., 49:316-328). Briefly, human red blood cells (hRBCs) obtained from UNMC Blood Bank. The blood washed 3× with isotonic saline (0.9% NaCl) and diluted to 2% blood cells (v/v). Peptide horine and verine at various concentrations were added into the 2% blood cells and incubated at 37° C. for 1 hour. Post incubation the plates were spun at 2000 rpm for 10 minutes, aliquots of the supernatant were carefully transferred to a fresh 96-well microplate. The amount of cells lysed is proportional to the hemoglobin released and measured at 545 nm using a ChroMate® microplate reader. The percent lysis was calculated by assuming 100% release when human blood cells were treated with 1% Triton™ X-100, and 0% release when incubated with PBS. The peptide concentration that caused 50% lysis of hRBCs is defined as HL50.
Turning to `CC(C)C[C@H](NC(=O)[C@H](CC(C)C)NC(=O)[C@H](CCCCN)NC(=O)[C@H](CC(C)C)NC(=O)CNC(=O)[C@H](CC(C)C)NC(=O)[C@H](CO)NC(=O)[C@H](CC(C)C)NC(=O)[C@H](CC(C)C)NC(=O)[C@H](CC(C)C)NC(=O)[C@H](CO)NC(=O)[C@H](CC(C)C)NC(=O)CN)C(N)=O` [DFT503] (H-GLSLLLSLGLKLL-NH2; N-terminus and C-terminus assumed), the “CSI, cell selectivity index” value is recorded as over 192.

On to `CC(C)C[C@@H](NC(=O)[C@@H](CC(C)C)NC(=O)[C@@H](CCCCN)NC(=O)[C@@H](CC(C)C)NC(=O)CNC(=O)[C@@H](CC(C)C)NC(=O)[C@@H](CO)NC(=O)[C@@H](CC(C)C)NC(=O)[C@@H](CC(C)C)NC(=O)[C@@H](CC(C)C)NC(=O)[C@@H](CO)NC(=O)[C@@H](CC(C)C)NC(=O)CN)C(N)=O` [DFT503d] (H-G[dL][dS][dL][dL][dL][dS][dL]G[dL][dK][dL][dL]-NH2; N-terminus and C-terminus assumed), for which the “CSI, cell selectivity index” value was over 192.

On to `CC(C)C[C@H](NC(=O)[C@H](CC(C)C)NC(=O)[C@H](CCCCN)NC(=O)[C@H](CC(C)C)NC(=O)CNC(=O)[C@H](CC(C)C)NC(=O)[C@H](CO)NC(=O)[C@H](CC(C)C)NC(=O)[C@H](CC(C)C)NC(=O)[C@H](CO)NC(=O)[C@H](CC(C)C)NC(=O)[C@H](CC(C)C)NC(=O)CN)C(N)=O` [DFT531] (H-GLLSLLSLGLKLL-NH2; N-terminus and C-terminus assumed), for which the “CSI, cell selectivity index” value is 9.0.

In the case of `CC(C)C[C@H](NC(=O)[C@H](CC(C)C)NC(=O)[C@H](CCCCN)NC(=O)[C@H](CC(C)C)NC(=O)CNC(=O)[C@H](CC(C)C)NC(=O)[C@H](CO)NC(=O)[C@H](CC(C)C)NC(=O)[C@H](CC(C)C)NC(=O)[C@H](CC(C)C)NC(=O)[C@H](CO)NC(=O)[C@H](CC(C)C)NC(=O)[C@@H](N)CCCCN)C(N)=O` [DFT560] (H-KLSLLLSLGLKLL-NH2; N-terminus and C-terminus assumed), the “CSI, cell selectivity index” value turned out to be 16.

With `CC(C)C[C@H](NC(=O)[C@H](CC(C)C)NC(=O)[C@H](CCCCN)NC(=O)[C@H](CC(C)C)NC(=O)CNC(=O)[C@H](CC(C)C)NC(=O)[C@H](CO)NC(=O)[C@H](CC(C)C)NC(=O)[C@H](CC(C)C)NC(=O)[C@H](CC(C)C)NC(=O)[C@H](CCCCN)NC(=O)[C@H](CC(C)C)NC(=O)CN)C(N)=O` [DFT561] (H-GLKLLLSLGLKLL-NH2; N-terminus and C-terminus assumed), the “CSI, cell selectivity index” value is recorded as over 192.

Take `CC(C)C[C@@H](NC(=O)[C@@H](CC(C)C)NC(=O)[C@@H](CCCCN)NC(=O)[C@@H](CC(C)C)NC(=O)CNC(=O)[C@@H](CC(C)C)NC(=O)[C@@H](CO)NC(=O)[C@@H](CC(C)C)NC(=O)[C@@H](CC(C)C)NC(=O)[C@@H](CC(C)C)NC(=O)[C@@H](CCCCN)NC(=O)[C@@H](CC(C)C)NC(=O)CN)C(N)=O` [DFT561d] (H-G[dL][dK][dL][dL][dL][dS][dL]G[dL][dK][dL][dL]-NH2; N-terminus and C-terminus assumed): the “CSI, cell selectivity index” value is recorded as over 192.

Regarding `CC(C)C[C@H](NC(=O)[C@H](CC(C)C)NC(=O)[C@H](CCCCN)NC(=O)[C@H](CC(C)C)NC(=O)CNC(=O)[C@H](CC(C)C)NC(=O)[C@H](CCCCN)NC(=O)[C@H](CC(C)C)NC(=O)[C@H](CC(C)C)NC(=O)[C@H](CC(C)C)NC(=O)[C@H](CCCCN)NC(=O)[C@H](CC(C)C)NC(=O)CN)C(N)=O` [DFT564] (H-GLKLLLKLGLKLL-NH2; N-terminus and C-terminus assumed), the “CSI, cell selectivity index” value is under 16.

Consider `CC(C)C[C@H](NC(=O)[C@H](CC(C)C)NC(=O)[C@H](CCCCN)NC(=O)[C@H](CC(C)C)NC(=O)CNC(=O)[C@H](CC(C)C)NC(=O)[C@H](CCCCN)NC(=O)[C@H](CC(C)C)NC(=O)[C@H](CC(C)C)NC(=O)[C@H](CC(C)C)NC(=O)[C@H](CCCCN)NC(=O)[C@H](CC(C)C)NC(=O)[C@@H](N)CCCCN)C(N)=O` [DFT565] (H-KLKLLLKLGLKLL-NH2; N-terminus and C-terminus assumed), for which the “CSI, cell selectivity index” value turned out to be 64.

For the compound `CC(C)C[C@H](NC(=O)[C@H](CC(C)C)NC(=O)[C@H](CCCCN)NC(=O)CNC(=O)[C@H](CC(C)C)NC(=O)[C@H](CC(C)C)NC(=O)[C@H](CO)NC(=O)[C@H](CC(C)C)NC(=O)[C@H](CC(C)C)NC(=O)[C@H](CO)NC(=O)[C@H](CC(C)C)NC(=O)[C@H](CC(C)C)NC(=O)CN)C(N)=O` [DFTamP1] (H-GLLSLLSLLGKLL-NH2; N-terminus assumed), the “CSI, cell selectivity index” value is 3.2.

Values taken from patent US12173088B2, “Anti-microbial peptides” (priority 2018, dated 2024).
